Test results as given in article PMC12137317.
Results are given in words; binding and its absence hold for the method and conditions named. Binding seen in cells or lysates may run through a third protein. Here binding means that the protein was enriched with, or labelled near, the bait; the list need not be complete.

Amino acid sequences for entries named in this document (tags omitted).
UniProt P52926: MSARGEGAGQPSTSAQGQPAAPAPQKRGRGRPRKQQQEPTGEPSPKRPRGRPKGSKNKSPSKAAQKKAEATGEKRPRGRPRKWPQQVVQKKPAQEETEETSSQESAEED
UniProt Q92794: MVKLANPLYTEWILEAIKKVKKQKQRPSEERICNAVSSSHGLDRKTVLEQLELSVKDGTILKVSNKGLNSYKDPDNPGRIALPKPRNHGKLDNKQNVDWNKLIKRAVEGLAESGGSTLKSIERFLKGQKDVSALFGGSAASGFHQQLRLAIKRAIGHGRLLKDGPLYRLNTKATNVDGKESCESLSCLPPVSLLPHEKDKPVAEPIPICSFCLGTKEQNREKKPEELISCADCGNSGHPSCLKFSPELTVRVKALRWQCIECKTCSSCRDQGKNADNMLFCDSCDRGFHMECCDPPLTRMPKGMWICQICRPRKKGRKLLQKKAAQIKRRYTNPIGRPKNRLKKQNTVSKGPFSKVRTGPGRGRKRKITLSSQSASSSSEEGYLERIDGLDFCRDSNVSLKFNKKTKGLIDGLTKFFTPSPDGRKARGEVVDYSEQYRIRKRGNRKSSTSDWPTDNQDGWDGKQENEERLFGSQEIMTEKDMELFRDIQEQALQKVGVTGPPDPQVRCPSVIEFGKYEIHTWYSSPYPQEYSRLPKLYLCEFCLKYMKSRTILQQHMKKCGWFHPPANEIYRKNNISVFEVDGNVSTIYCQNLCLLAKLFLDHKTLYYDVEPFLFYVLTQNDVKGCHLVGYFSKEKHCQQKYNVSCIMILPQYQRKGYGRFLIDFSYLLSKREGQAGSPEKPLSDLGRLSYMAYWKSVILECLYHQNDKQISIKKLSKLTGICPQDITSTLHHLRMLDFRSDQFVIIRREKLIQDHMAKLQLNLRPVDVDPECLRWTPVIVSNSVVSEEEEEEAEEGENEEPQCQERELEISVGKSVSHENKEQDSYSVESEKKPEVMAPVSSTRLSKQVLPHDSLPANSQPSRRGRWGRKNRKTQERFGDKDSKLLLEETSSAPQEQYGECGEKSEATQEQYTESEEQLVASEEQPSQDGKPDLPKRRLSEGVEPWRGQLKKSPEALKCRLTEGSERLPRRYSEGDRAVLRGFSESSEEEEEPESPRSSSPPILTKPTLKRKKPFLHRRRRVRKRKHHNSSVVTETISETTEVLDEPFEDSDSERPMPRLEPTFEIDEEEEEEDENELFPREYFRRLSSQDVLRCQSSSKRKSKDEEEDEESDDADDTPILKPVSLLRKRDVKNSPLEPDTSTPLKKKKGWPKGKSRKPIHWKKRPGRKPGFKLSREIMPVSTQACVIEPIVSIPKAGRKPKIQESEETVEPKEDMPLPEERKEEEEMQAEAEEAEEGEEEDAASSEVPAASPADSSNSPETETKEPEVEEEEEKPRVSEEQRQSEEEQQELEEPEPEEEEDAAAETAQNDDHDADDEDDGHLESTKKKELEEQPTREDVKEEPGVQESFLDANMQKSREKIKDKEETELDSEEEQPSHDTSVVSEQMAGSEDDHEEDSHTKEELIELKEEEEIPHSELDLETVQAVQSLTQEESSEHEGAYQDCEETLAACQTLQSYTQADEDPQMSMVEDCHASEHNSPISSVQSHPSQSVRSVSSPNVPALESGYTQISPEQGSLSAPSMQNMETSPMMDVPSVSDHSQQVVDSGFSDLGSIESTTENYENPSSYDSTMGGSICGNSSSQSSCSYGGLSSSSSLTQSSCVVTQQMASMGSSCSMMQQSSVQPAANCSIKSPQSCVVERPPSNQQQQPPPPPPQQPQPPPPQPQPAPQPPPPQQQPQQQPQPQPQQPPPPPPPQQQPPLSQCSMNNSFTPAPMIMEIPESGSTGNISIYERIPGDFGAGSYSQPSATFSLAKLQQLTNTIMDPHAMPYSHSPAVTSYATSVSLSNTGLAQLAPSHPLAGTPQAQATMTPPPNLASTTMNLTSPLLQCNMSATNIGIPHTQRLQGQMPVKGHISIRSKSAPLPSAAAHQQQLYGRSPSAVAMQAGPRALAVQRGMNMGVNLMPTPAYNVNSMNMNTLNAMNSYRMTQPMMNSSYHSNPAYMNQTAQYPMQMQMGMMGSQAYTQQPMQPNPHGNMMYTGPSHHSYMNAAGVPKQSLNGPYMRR

Target: High mobility group AT-hook 2 (HMGA2), full-length, overexpressed from pLVX-IRES-HMGA2 (human) (UniProt P52926)
Assay: affinity purification with mass spectrometry; IP from MDA-MB-231 cells, vector versus HMGA2 cells; NP-40 lysis buffer; protein A/G magnetic beads; SDS-PAGE with Coomassie staining, then mass spectrometry

binding: binds
Substance: Lysine acetyltransferase 6A (KAT6A) in TNBC cells (from UniProt Q92794 1-2004)
